In all, about 300,000 compounds went through this assay and about 3,700 (1.2%) were called active. Inconclusive means that the source gave no clear call. Such entries were picked first, then a sample of the others. The call rests on the fitted dose curve; tested in HEK293 cells. Where the call is inconclusive, the potency comes from a doubtful curve fit.
Experiment: qHTS for Inhibitors of binding or entry into cells for Lassa Virus; further: nearly all actives have a fitted effect of over 50% in size
Settings: Lassa virus pseudotype entry inhibition, cell reporter; series mostly up to 37.9 µM
With COc1cccc(OCc2nnc(SCC(=O)OC3CCCCC3)n2C)c1 the Potency was “inactive”. For CCOC(=O)c1c(C)[nH]c(C(=O)OCCOc2ccc(Cl)cc2)c1C, the Potency was “inactive”. For CCCC(=O)N(CCc1ccccc1)Cc1nc2ccccc2c(=O)[nH]1, the Potency was inconclusive: 22.4 µM [inhibitor, single point]. With COc1ccc(N(CC(=O)NCCc2ccccc2)C(=O)CCC(=O)Nc2ccccn2)cc1 the Potency was inconclusive: 2 µM [inhibitor, full curve, poor fit]. For O=C(C1CCCN(Cc2ccccc2)C1)N1CCCCC1 (centres undefined), the Potency was “inactive”. For O=C(CC1Sc2ccccc2NC1=O)Nc1cccc(C(F)(F)F)c1 (centres undefined), the Potency was “inactive”. In the case of Cc1cc(C)cc(OCC(=O)N/N=C/c2ccncc2)c1, the Potency was “inactive”. For COCCn1c(C(F)(F)F)ccc(NC(=O)c2ccccc2)c1=O, the Potency was inconclusive: 15.8 µM [inhibitor, partial curve, poor fit]. With CCOC(=O)c1cnc(SCC(=O)Nc2cc(OC)cc(OC)c2)nc1N the Potency was “inactive”. For CC1(C)NC(=O)N(CCOCCOc2cccc(Oc3ccccc3)c2)C1=O, the Potency was inconclusive: 18.3 µM [inhibitor, single point]. For COc1ccc(OC)c(NC(=O)C(C)n2c(=O)c(-c3ccccc3NC(C)=O)nc3ccccc32)c1 (centres undefined), the Potency was “inactive”. With COc1ccc(C)cc1-n1nnnc1SCC(=O)NC(=O)NCc1ccco1 the Potency was “inactive”. With CN(C)c1ncc(C2=C(Cl)C(=O)C(N3CCCC3)=C(Cl)C2=O)s1 the Potency was inconclusive: 20.6 µM [inhibitor, single point]. In the case of CC(C)(C)c1ccc(/C=C/C(=O)Nc2ccc3c(c2)OCCO3)cc1, the Potency was active: 6.51 µM. With CCOc1ccc(NC(=O)CSc2nc3ccsc3c(=O)n2CCC(C)C)cc1 the Potency was inconclusive: 35.5 µM [activator, single point]. For Cc1ccc(/C=N/Nc2nnc(Cc3ccccc3)c(=O)[nH]2)o1, the Potency was inconclusive: 7.08 µM [inhibitor, full curve, poor fit]. With CCCN(CC(=O)Nc1ccccc1OC)C(=O)c1ccc2[nH]c3c(c2c1)CC(C)CC3 (centres undefined) the Potency was inconclusive: 6.31 µM [inhibitor, full curve]. For O=C(NCc1cccnc1)c1ccc(-c2ccccc2[N+](=O)[O-])o1, the Potency was “inactive”. In the case of Cc1oc2ccc(O)c(CN3CCCCCC3)c2c1C(=O)Nc1cccc(C(F)(F)F)c1, the Potency was inconclusive: 11.2 µM [inhibitor, partial curve]. With O=C1c2ccccc2C(=O)c2c1cccc2N1CCN(CCO)CC1 the Potency was inconclusive: 20.6 µM [activator, single point]. With CCC(O)c1nc2ccccc2n1Cc1cc(C)ccc1C (centres undefined) the Potency was inconclusive: 2.51 µM [activator, partial curve, poor fit]. For Cc1cc(=O)oc2cc(OCC(=O)OCC(=O)Nc3ccccc3Br)ccc12, the Potency was inconclusive: 20 µM [activator, partial curve, poor fit]. For CN(C)c1nc(SCCOC(=O)c2ccccc2)nc(N(C)C)n1, the Potency was “inactive”. For Cc1ccc(C)c(N2CCN(C(=O)Cn3nc(C)c4sc5ccccc5c4c3=O)CC2)c1, the Potency was inconclusive: 8.91 µM [inhibitor, partial curve, poor fit]. With COc1ccccc1N(CC(=O)Nc1ccccc1C(F)(F)F)S(=O)(=O)c1ccc(C)cc1 the Potency was “inactive”. For CCc1ccc(-c2ccc(SCC(=O)Nc3nnc(C)s3)nn2)cc1, the Potency was inconclusive: 35.5 µM [inhibitor, single point]. For COc1ccccc1NS(=O)(=O)c1cn(C)c(C)n1, the Potency was “inactive”. With Cc1cccc(-c2noc(CN(C)C(=O)c3ccco3)n2)c1 the Potency was “inactive”. For Cn1c(=O)c2[nH]c(-c3ccccc3Cl)c(O)c2n(C)c1=O, the Potency was “inactive”. In the case of CCC1CN(C(=O)N2CCC(C(=O)NCc3cccc(F)c3)CC2)c2cc(C)ccc2O1 (centres undefined), the Potency was inconclusive: 10 µM [inhibitor, partial curve, poor fit]. With CC(C)c1nc2sc3c(NCc4ccccc4)ncnc3c2c2c1COC(C)(C)C2 the Potency was “inactive”. With CCN1CCc2c(sc(NC(=O)c3ccc(S(=O)(=O)N(CC)c4ccccc4)cc3)c2C(N)=O)C1 the Potency was inconclusive: 35.5 µM [inhibitor, single point]. In the case of NC(=O)C1CCN(C(=O)c2ccc3nc(-c4ccccc4)c(-c4ccccc4)nc3c2)CC1, the Potency was inconclusive: 35.5 µM [inhibitor, single point]. For Cc1nn(-c2ccccc2)c(Cl)c1/C=N/NC(=O)c1cccnc1, the Potency was inconclusive: 7.08 µM [activator, partial curve, poor fit]. In the case of COc1ccccc1OCC(=O)c1[nH]c(C)c(C(C)=O)c1C, the Potency was inconclusive: 23.1 µM [inhibitor, single point]. For Oc1ccc(/C=N/N=C/c2ccc(O)cc2)cc1, the Potency was “inactive”. In the case of COc1ccc(C(=O)N(Cc2ccccc2)c2ccc(C)cc2)cc1S(=O)(=O)N1CCOCC1, the Potency was inconclusive: 14.1 µM [inhibitor, partial curve]. In the case of COc1ccc(N(C)C(=O)CCS(=O)(=O)c2cccc3nonc23)cc1, the Potency was inconclusive: 0.651 µM [activator, full curve, poor fit]. In the case of O=S(=O)(Nc1cccc(-c2ccc3nncn3n2)c1)c1cc(F)ccc1F, the Potency was “inactive”. With O=C1/C(=C\c2ccco2)NC(=S)N1c1ccccc1 the Potency was inconclusive: 35.5 µM [inhibitor, single point]. In the case of CCOC(=O)CSc1nc2ccccc2c(=O)n1C, the Potency was “inactive”. With Cc1cc2nc(-c3ccc(SCC(=O)Nc4ccc(S(=O)(=O)N5CCCC5)cc4)nc3)[nH]c2cc1C the Potency was inconclusive: 0.282 µM [inhibitor, full curve, poor fit]. For CC(C)(C)C(=O)OCc1nc(-c2ccc(Cl)cc2)cs1, the Potency was inconclusive: 3.98 µM [activator, partial curve]. For Cc1ccc(NC(=O)CN(C)CC(=O)Nc2sc3c(c2C(N)=O)CCC3)cc1, the Potency was inconclusive: 35.5 µM [activator, single point]. With O=C(NC(=S)Nc1ccccc1[N+](=O)[O-])c1ccccc1Cl the Potency was “inactive”. In the case of CC(C)CCNC(=O)CCCn1c(=O)[nH]c2ccc(Br)cc2c1=O, the Potency was inconclusive: 1.46 µM [inhibitor, full curve, poor fit]. With Cc1cc2ccccn2c1C(C[N+](=O)[O-])c1c(F)cccc1Cl (centres undefined) the Potency was inconclusive: 22.4 µM [inhibitor, single point]. With CCN(CC)CCCN(Cc1cc2cc3c(cc2[nH]c1=O)OCO3)C(=S)Nc1ccccc1OC the Potency was “inactive”. In the case of COCCCn1c(SCC(=O)Nc2ccc(C)cc2)nc2ccccc2c1=O, the Potency was “inactive”. In the case of CCCNC(=O)c1ccc2c(=O)n(Cc3ccco3)c(=S)[nH]c2c1, the Potency was “inactive”. In the case of COc1ccc(NS(=O)(=O)c2cccc(NC(=O)CCC(=O)c3ccc(Cl)cc3)c2)cc1, the Potency was inconclusive: 20 µM [inhibitor, single point]. For O=C(O)Cc1ccc(NC(=O)Nc2ccc(Br)cc2)cc1, the Potency was “inactive”. With CCCCCCN(C(=O)CCCCCN1C(=O)NC(c2ccc(-c3ccccc3)cc2)C(C(=O)OCc2ccccc2)=C1C)C(C)C(=O)NCCCC (centres undefined) the Potency was inconclusive: 2.59 µM [inhibitor, full curve]. In the case of Oc1[nH]c2ccccc2c1C=Nc1ccc(-n2cncn2)cc1, the Potency was inconclusive: 1.12 µM [activator, partial curve, poor fit]. For O=S(=O)(Nc1ccccc1O)c1cccc2cccnc12, the Potency was inconclusive: 31.6 µM [inhibitor, partial curve, poor fit]. With CCC(=NCc1ccco1)c1c(O)n(Cc2ccccc2)c(=O)[nH]c1=O the Potency was inconclusive: 9.2 µM [inhibitor, partial curve]. With Cc1ccc(-n2ncc3c(=O)[nH]c(SCC(=O)N4CCOCC4)nc32)cc1 the Potency was inconclusive: 1.26 µM [inhibitor, single point]. For CCOc1ccc(-c2cn3nc(CC(C)C)sc3n2)cc1, the Potency was inconclusive: 1 µM [activator, full curve, poor fit]. With O=C(Nc1ccc2c(c1)N(S(=O)(=O)c1cccs1)CCC2)c1c(F)cccc1Cl the Potency was inconclusive: 7.94 µM [inhibitor, full curve, poor fit]. In the case of COc1ccc(NC(=O)CN(C)C(=O)c2cc(-c3ccco3)nc3ccccc23)cc1, the Potency was inconclusive: 35.5 µM [inhibitor, single point]. With Cc1cccc(C(C)(C)C)c1OCCCCN1CCCC1 the Potency was inconclusive: 17.8 µM [inhibitor, single point]. In the case of S=C(NCc1ccc(Cl)cc1)Nc1ccccc1, the Potency was “inactive”. In the case of OCc1ccc(-c2ccccc2)c(-c2ccccc2)c1, the Potency was “inactive”. For CN(C)S(=O)(=O)c1ccc(C(=O)Nc2nc(-c3cc4ccccc4o3)cs2)cc1, the Potency was inconclusive: 4.61 µM [inhibitor, full curve, poor fit]. In the case of Cc1cc(C)cc(N2C(=O)NC(=O)/C(=C\C=C\c3ccco3)C2=O)c1, the Potency was inconclusive: 8.91 µM [inhibitor, partial curve]. In the case of Cc1cccc(NC(=O)Cn2c(SCC(=O)NCc3ccccc3)nc3ccccc32)c1C, the Potency was inconclusive: 35.5 µM [activator, single point]. With CCS(=O)(=O)Nc1ccc(C2=NN(S(=O)(=O)c3ccc(F)cc3)C(c3ccco3)C2)cc1 (centres undefined) the Potency was active: 7.3 µM. In the case of CCOC(=O)c1c(NC(=O)CN2C(=O)NC3(CCCCC3C)C2=O)sc(C)c1C (centres undefined), the Potency was inconclusive: 29.1 µM [inhibitor, single point]. In the case of COc1ccc(C(=O)C2CCCN(Cc3cccn3-c3ccccn3)C2)c(C)c1 (centres undefined), the Potency was inconclusive: 14.1 µM [inhibitor, single point].

— PubChem BioAssay AID540256 (National Center for Advancing Translational Sciences (NCATS), 2011)
Potency means the concentration at half of the fitted maximal effect.
